Binding data for one substance are collected here from publication PMC6265450.

Protein sequences, listed by entry. Tags and fused reporters are not part of them.
UniProt P12004: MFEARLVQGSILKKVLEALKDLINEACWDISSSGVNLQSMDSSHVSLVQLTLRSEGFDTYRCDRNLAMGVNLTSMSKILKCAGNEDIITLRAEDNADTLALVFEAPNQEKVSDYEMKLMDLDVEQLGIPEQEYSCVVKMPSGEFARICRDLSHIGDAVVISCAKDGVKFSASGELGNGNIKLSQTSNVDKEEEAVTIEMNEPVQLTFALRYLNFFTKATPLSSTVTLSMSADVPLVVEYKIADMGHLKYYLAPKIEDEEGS

No constants are given. Whether binding was seen depends on the method and setting. Some binding calls cover weakened binding; strength is not graded here. Where a sequence is shown, tags or fusion partners need not be part of it.

The target of the experiment is T1, histidine-tagged helicase-like transcription factor (^hisHLTF) (human) (UniProt Q14527).
T1 sequence: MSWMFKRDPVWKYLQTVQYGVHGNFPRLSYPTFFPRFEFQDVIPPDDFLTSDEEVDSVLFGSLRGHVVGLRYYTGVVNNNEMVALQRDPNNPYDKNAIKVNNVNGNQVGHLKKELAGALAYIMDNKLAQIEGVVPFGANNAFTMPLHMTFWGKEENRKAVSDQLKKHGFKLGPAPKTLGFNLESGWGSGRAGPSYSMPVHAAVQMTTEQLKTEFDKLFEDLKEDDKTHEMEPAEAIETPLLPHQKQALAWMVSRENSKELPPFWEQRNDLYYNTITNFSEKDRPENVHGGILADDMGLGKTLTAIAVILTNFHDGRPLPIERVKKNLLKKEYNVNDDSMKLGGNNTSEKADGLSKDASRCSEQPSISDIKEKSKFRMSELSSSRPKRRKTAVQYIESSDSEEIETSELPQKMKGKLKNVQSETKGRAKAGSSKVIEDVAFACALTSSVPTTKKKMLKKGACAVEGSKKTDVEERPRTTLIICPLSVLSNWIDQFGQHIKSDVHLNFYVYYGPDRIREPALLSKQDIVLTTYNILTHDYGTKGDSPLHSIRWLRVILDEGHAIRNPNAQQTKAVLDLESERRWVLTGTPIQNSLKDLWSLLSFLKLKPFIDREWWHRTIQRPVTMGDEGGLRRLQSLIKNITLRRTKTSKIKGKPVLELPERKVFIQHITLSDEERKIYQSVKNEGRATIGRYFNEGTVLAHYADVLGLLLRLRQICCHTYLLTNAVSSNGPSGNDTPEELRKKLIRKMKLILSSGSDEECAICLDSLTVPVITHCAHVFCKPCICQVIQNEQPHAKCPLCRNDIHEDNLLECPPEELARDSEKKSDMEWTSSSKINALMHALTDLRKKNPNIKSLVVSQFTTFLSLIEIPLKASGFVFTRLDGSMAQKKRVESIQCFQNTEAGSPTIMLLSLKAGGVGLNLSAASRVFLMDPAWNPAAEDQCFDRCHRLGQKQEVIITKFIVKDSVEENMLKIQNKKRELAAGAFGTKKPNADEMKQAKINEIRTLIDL
Kind of experiment: pull-down; 10 pmol histidine-tagged protein on Ni-charged IMAC resin; 2.5 pmol PCNA, on ice 5 min; 20 mM HEPES-NaOH pH 7.5, 50 mM NaCl, 10 mM imidazole, 0.2 mg/ml BSA, 1 mM DTT; blot with anti-PCNA; both purified.

Take “proliferating cell nuclear antigen (PCNA) (from UniProt P12004 1-261)”: the binding entry is “binds weakly”.
